# From the supplement of paper PMC3682954
# Where a name gives a salt, the structure may show the parent alone. ± gives the standard deviation of the averaged measurements. The list shows a part of the results. Single values are uncertain, as repeats are few or missing.
# Test system: RAW 264.7
# Assay: HMGB1-induced TNF-alpha production relative to HMGB1-stimulated control; higher = more TNF-alpha secretion (less inhibition)
# Settings: stimulus: HMGB1 5 ug/ml, 18 h
# [1] = compound concentration: 1 ug/ml
structure (smiles),measurement,setting,value
Cc1ccc(S(=O)(=O)NC(=O)NN2CC3CCCC3C2)cc1 (stereo not given) [Gliclazide],HMGB1-induced TNF-alpha production,compound concentration: 3 uM,86.4 ± 20%
Cc1ccc(S(=O)(=O)NC(=O)NN2CC3CCCC3C2)cc1 (stereo not given),HMGB1-induced TNF-alpha production,compound concentration: 3 uM,83.6%
COc1ccc(-c2cc(=O)c3c(O)cc(O)cc3o2)cc1 [Acacetin],HMGB1-induced TNF-alpha production,[1],76.8%
c1ccc(C(NCCNC(c2ccccc2)c2ccccc2)c2ccccc2)cc1,HMGB1-induced TNF-alpha production,compound concentration: 3 uM,90.7%
CC(=O)N[C@@H](CC(=O)N[C@@H](CCC(=O)O)C(=O)O)C(=O)O [Spaglumic acid],HMGB1-induced TNF-alpha production,compound concentration: 3 uM,109%
CC(=O)N[C@@H](CC(=O)N[C@@H](CCC(=O)O)C(=O)O)C(=O)O,HMGB1-induced TNF-alpha production,compound concentration: 3 uM,78.3%
O=c1c(O)c(-c2cc(O)c(O)c(O)c2)oc2cc(O)cc(O)c12 [Myricetin],HMGB1-induced TNF-alpha production,[1],66.6%
same,HMGB1-induced TNF-alpha production,compound concentration: 3 uM,123%
O=c1[nH]c2ccccc2c2ccccc12 [6(5H)-Phenanthridinone],HMGB1-induced TNF-alpha production,compound concentration: 3 uM,106%
C#CCN(C)Cc1ccccc1 [Pargyline hydrochloride],HMGB1-induced TNF-alpha production,compound concentration: 3 uM,89.8 ± 3%
C#CCN(C)Cc1ccccc1,HMGB1-induced TNF-alpha production,compound concentration: 3 uM,86.9%
CCCCCC(C)N (stereo not given),HMGB1-induced TNF-alpha production,compound concentration: 3 uM,79.6%
COc1ccc2cc(CCC(C)=O)ccc2c1 [Nabumetone],HMGB1-induced TNF-alpha production,compound concentration: 3 uM,96.8 ± 26%
Cc1cccc(/C=C/c2ccccc2)n1,HMGB1-induced TNF-alpha production,compound concentration: 3 uM,102%
O=C(O)CCC(=O)OC[C@@H](NC(=O)C(Cl)Cl)[C@H](O)c1ccc([N+](=O)[O-])cc1,HMGB1-induced TNF-alpha production,compound concentration: 3 uM,89.5%
CCn1cc(C(=O)O)c(=O)c2ccc(C)nc21,HMGB1-induced TNF-alpha production,compound concentration: 3 uM,84.6%
CCn1cc(C(=O)O)c(=O)c2ccc(C)nc21 [Nalidixic acid sodium],HMGB1-induced TNF-alpha production,compound concentration: 3 uM,120%
CCn1cc(C(=O)O)c(=O)c2ccc(C)nc21 [Nalidixic acid sodium salt],HMGB1-induced TNF-alpha production,compound concentration: 3 uM,100%
C[C@H]1[C@@H](O)O[C@@H]2O[C@@]3(C)CC[C@H]4[C@H](C)CC[C@@H]1[C@@]24OO3,HMGB1-induced TNF-alpha production,compound concentration: 3 uM,88.9%
COc1ccc(-c2oc3c(CC=C(C)C)c(O[C@@H]4O[C@H](CO)[C@@H](O)[C@H](O)[C@H]4O)cc(O)c3c(=O)c2O[C@@H]2O[C@@H](C)[C@H](O)[C@@H](O)[C@H]2O)cc1,HMGB1-induced TNF-alpha production,compound concentration: 3 uM,103%
COc1ccc(-c2oc3c(CC=C(C)C)c(O[C@@H]4O[C@H](CO)[C@@H](O)[C@H](O)[C@H]4O)cc(O)c3c(=O)c2O[C@@H]2O[C@@H](C)[C@H](O)[C@@H](O)[C@H]2O)cc1 [Icarrin],HMGB1-induced TNF-alpha production,[1],84.2%
CCN(CC)CCNC(=O)c1cc(S(C)(=O)=O)ccc1OC,HMGB1-induced TNF-alpha production,compound concentration: 3 uM,109%
CCN(CC)CCNC(=O)c1cc(S(C)(=O)=O)ccc1OC [Tiapride hydrochloride],HMGB1-induced TNF-alpha production,compound concentration: 3 uM,101 ± 5.2%
O=C(CCCN1CC=C(n2c(=O)[nH]c3ccccc32)CC1)c1ccc(F)cc1,HMGB1-induced TNF-alpha production,compound concentration: 3 uM,95.4 ± 9.2%
O=C(CCCN1CC=C(n2c(=O)[nH]c3ccccc32)CC1)c1ccc(F)cc1 [Droperidol],HMGB1-induced TNF-alpha production,compound concentration: 3 uM,70.3 ± 17%

# A different layout for some results above.
structure (smiles)	measurement	setting	value
O=c1c(O)c(-c2cc(O)c(O)c(O)c2)oc2cc(O)cc(O)c12 [Myricetin]	HMGB1-induced TNF-alpha production	[1]	66.6%
same	HMGB1-induced TNF-alpha production	compound concentration: 3 uM	123%
